The list is a part of this screen's results and no random one: it gathers tests that were run many times, whatever their T/C, doses with no T/C, and many T/C values between a quarter and a half above the control. Further doses and runs are listed elsewhere. T/C gives the treated animals as a percentage of the vehicle group. Schedules are NCI's codes, read here as Q, the interval in days (D) or hours (H), X, the number of doses. Some schedule codes hold Z or #, which are not explained here. Some doses were run more than once; the results are listed from low to high. Some T/C values carry the count of animals alive at the toxicity check (mostly the fifth day); without a count, all were alive then. Some doses have a count of surviving animals in place of a T/C: the source holds a T/C of zero for them, seemingly a mark for toxic or unscored doses. Survivors were counted at the toxicity check, usually on the fifth day, unless a day is given; later deaths do not show.
Test system: Swiss mice, Sarcoma 180 sc, mean tumor weight T/C
Assay: NCI In Vivo Anticancer Drug Screen. Data for tumor model Sarcoma 180 (subcutaneous) in Swiss mice
Settings: T/C endpoint: mean tumor weight, higher T/C = larger tumour; for T/C: evaluated on day 8
Method: The antitumor activity of compounds was measured in mice bearing transplantable tumors. Survival or tumor size were measured and the results are expressed as the measurement made in the treated group (T) divided by the measurement made in the vehicle treated control group (C). The tumor model used in this assay is Sarcoma 180 (subcutaneous) in Swiss mice

[1] = dose: 50.0 mg/kg/injection, schedule: Q01DX007 (ip), vehicle: saline
[2] = dose: 200.0 mg/kg/injection, schedule: Q01DX007 (ip), vehicle: saline
[3] = dose: 40.0 mg/kg/injection, schedule: Q01DX007 (ip), vehicle: carboxymethylcellulose (CMC)

CC(CNC(=O)CCBr)NC(=O)CCBr (stereo not drawn)
survivor count (dose: 375.0 mg/kg/injection, schedule: Q01DX007 (ip), vehicle: carboxymethylcellulose (CMC)): 1 of 6

CC/C(=C(/CC)c1ccc(O)cc1)c1ccc(O)cc1
survivor count (dose: 70.8 mg/kg/injection, schedule: Q01DX007 (sc), vehicle: steroid suspending solution): 4 of 10
survivor count (dose: 88.5 mg/kg/injection, schedule: Q01DX007 (sc), vehicle: steroid suspending solution): 3 of 10
survivor count (dose: 118.0 mg/kg/injection, schedule: Q01DX007 (sc), vehicle: steroid suspending solution): 4 of 10
survivor count (dose: 177.0 mg/kg/injection, schedule: Q01DX007 (sc), vehicle: steroid suspending solution): 5 of 10
survivor count (dose: 192.0 mg/kg/injection, schedule: Q01DX007 (sc), vehicle: steroid suspending solution): 3 of 10

O=C(O)CC[S-].[Ag+]
survivor count (dose: 281.0 mg/kg/injection, schedule: Q#A X014 (ip), vehicle: methylcellulose (MC)): 1 of 6

C[C@@H]1C[C@](O)([C@@H](C)Cl)C(=O)O[C@@H]2CCN3CC=C(COC(=O)[C@]1(C)O)[C@H]23
survivor count [1]: 0 of 6
survivor count (dose: 100.0 mg/kg/injection, schedule: Q01DX007 (ip), vehicle: saline): 0 of 6
survivor count [2]: 0 of 6

COC12C(COC(N)=O)C3=C(C(=O)C(C)=C(N)C3=O)N1CC1C2N1C (stereo not drawn)
T/C (dose: 5.0 mg/kg/injection, schedule: Q#A X014 (ip), vehicle: carboxymethylcellulose (CMC)): 55, 64, 80, 84 % of control
T/C (dose: 10.0 mg/kg/injection, schedule: Q#A X014 (ip), vehicle: carboxymethylcellulose (CMC)): 28, 29, 30, 44, 49 % of control

Fc1ccc(NC(=S)Nc2cc(Cl)cc(Cl)c2)cc1
survivor count (dose: 60.0 mg/kg/injection, schedule: Q01DX007 (ip), vehicle: carboxymethylcellulose (CMC)): 1 of 6

C[C@]12CC[C@H](O)CC1=CC[C@@H]1[C@@H]2CC[C@]2(C)c3nc4ccccc4cc3C[C@@H]12
T/C (dose: 31.3 mg/kg/injection, schedule: Q01DX007 (sc), vehicle: saline): 128 % of control

C=C(C)C(=O)OCC1CO1 (stereo not drawn)
T/C (dose: 300.0 mg/kg/injection, schedule: Q01DX007 (ip), vehicle: other): 125 % of control

C[C@@H]1C[C@H]2CC[C@H](O2)[C@H](C)C(=O)O[C@@H](C)C[C@@H]2CC[C@@H](O2)[C@@H](C)C(=O)O[C@H](C)C[C@H]2CC[C@H](O2)[C@H](C)C(=O)O[C@@H](C)C[C@@H]2CC[C@@H](O2)[C@@H](C)C(=O)O1
survivor count (dose: 15.0 mg/kg/injection, schedule: Q#A X014 (ip), vehicle: olive oil, sesame oil, peanut oil): 3 of 6
T/C (dose: 36.0 mg/kg/injection, schedule: Q01DX007 (sc), vehicle: methylcellulose (MC)): 129 % of control
survivor count (dose: 45.0 mg/kg/injection, schedule: Q#A X014 (ip), vehicle: carboxymethylcellulose (CMC)): 3 of 6
survivor count (dose: 75.0 mg/kg/injection, schedule: Q#A X014 (sc), vehicle: olive oil, sesame oil, peanut oil): 3 of 6

CC1=C(CO)C(=O)O[C@@H]([C@@H](C)[C@H]2CC[C@H]3[C@@H]4C[C@H]5O[C@]56[C@@H](O)C=CC(=O)[C@]6(C)[C@H]4CC[C@]23C)C1
T/C (dose: 10.0 mg/kg/injection, schedule: Q01DX007 (ip), vehicle: carboxymethylcellulose (CMC)): 128 % of control
survivor count (dose: 22.0 mg/kg/injection, schedule: Q01DX007 (ip), vehicle: saline): 2 of 4
survivor count (dose: 27.0 mg/kg/injection, schedule: Q01DX007 (ip), vehicle: saline): 2 of 6
survivor count (dose: 30.0 mg/kg/injection, schedule: Q01DX007 (ip), vehicle: carboxymethylcellulose (CMC)): 0 of 4 and 2 of 4
survivor count (dose: 30.0 mg/kg/injection, schedule: Q01DX007 (ip), vehicle: saline): 1 of 4
survivor count (dose: 36.0 mg/kg/injection, schedule: Q01DX007 (ip), vehicle: saline): 0 of 4
survivor count [3]: 0 of 4 and 1 of 4
survivor count (dose: 40.0 mg/kg/injection, schedule: Q01DX007 (ip), vehicle: saline): 0 of 4 and 1 of 6
survivor count [1]: 0 of 4

Nc1nc(=S)c2[nH]cnc2[nH]1
survivor count (dose: 4.5 mg/kg/injection, schedule: Q01DX007 (ip), vehicle: carboxymethylcellulose (CMC)): 1 of 7

CC(=O)C1(/C(C)=C/C2C(C=O)=CC(C)(C)C2O)CC1 (stereo not drawn)
T/C (dose: 4.0 mg/kg/injection, schedule: Q01DX007 (ip), vehicle: saline): 129 % of control
T/C (dose: 32.0 mg/kg/injection, schedule: Q01DX007 (ip), vehicle: saline): 139 % of control

CCCCOC(=O)C1(N)CCCC1
survivor count (dose: 300.0 mg/kg/injection, schedule: Q01DX007 (ip), vehicle: carboxymethylcellulose (CMC)): 4 of 7
survivor count (dose: 504.0 mg/kg/injection, schedule: Q01DX007 (ip), vehicle: saline): 2 of 6

CCCCCCCCCCCCOP(N)(=O)OCCCCCCCCCCCC
T/C [3]: 147 % of control [4 of 6 alive]
survivor count (dose: 125.0 mg/kg/injection, schedule: Q01DX007 (ip), vehicle: carboxymethylcellulose (CMC)): 0 of 6
survivor count (dose: 187.0 mg/kg/injection, schedule: Q01DX007 (ip), vehicle: carboxymethylcellulose (CMC)): 0 of 6

CN(N=O)C(N)=O
survivor count (dose: 11.25 mg/kg/injection, schedule: Q#A X014 (ip), vehicle: carboxymethylcellulose (CMC)): 6 of 10

CC(C)(C#N)C#N
survivor count (dose: 375.0 mg/kg/injection, schedule: Q01DX007 (ip), vehicle: saline): 3 of 6
survivor count (dose: 750.0 mg/kg/injection, schedule: Q01DX007 (ip), vehicle: saline): 2 of 6

C[C@]12C=CC(=O)C=C1CC[C@@H]1[C@@H]2[C@@H](O)C[C@@]2(C)[C@H]1CC[C@]2(O)C(=O)CF
survivor count (dose: 45.0 mg/kg/injection, schedule: Q01DX007 (sc), vehicle: steroid suspending solution): 4 of 7
T/C (dose: 240.0 mg/kg/injection, schedule: Q01DX007 (sc), vehicle: steroid suspending solution): 24 [6 of 7 alive], 29, 31 [7 of 8 alive], 36 % of control
survivor count (dose: 360.0 mg/kg/injection, schedule: Q01DX007 (sc), vehicle: steroid suspending solution): 4 of 7

O=C(O)c1cccc2c3c(cc([N+](=O)[O-])c12)CCCC3
T/C (dose: 0.37 mg/kg/injection, schedule: Q01DX007 (ip), vehicle: carboxymethylcellulose (CMC)): 135 % of control
T/C (dose: 0.75 mg/kg/injection, schedule: Q01DX007 (ip), vehicle: carboxymethylcellulose (CMC)): 137 % of control

COc1ccc2c(c1O)-c1c(OC)c(OC)cc3c1[C@H](C2)[N+](C)(C)CC3
T/C (dose: 1.25 mg/kg/injection, schedule: Q01DX007 (ip), vehicle: saline): 127 % of control
survivor count (dose: 10.0 mg/kg/injection, schedule: Q01DX007 (ip), vehicle: saline): 3 of 6
survivor count (dose: 55.0 mg/kg/injection, schedule: Q01DX007 (ip), vehicle: saline): 0 of 6
survivor count (dose: 83.0 mg/kg/injection, schedule: Q01DX007 (ip), vehicle: saline): 0 of 6
survivor count (dose: 125.0 mg/kg/injection, schedule: Q01DX007 (ip), vehicle: saline): 0 of 6

CS(=O)(=O)OCCC(=O)N1CCN(C(=O)CCOS(C)(=O)=O)CC1
survivor count (dose: 100.0 mg/kg/injection, schedule: Q#A X014 (ip), vehicle: methylcellulose (MC)): 2 of 6 and 3 of 6
survivor count [2]: 4 of 7

CCCCN(C)N=Nc1n[nH]nc1C(N)=O
survivor count (dose: 162.0 mg/kg/injection, schedule: Q01DX007 (ip), vehicle: carboxymethylcellulose (CMC)): 3 of 6

CCCCCCC(=O)NC1=C(N2CC2)C(=O)C(NC(=O)CCCCCC)=C(N2CC2)C1=O
survivor count (dose: 62.5 mg/kg/injection, schedule: Q#A X014 (ip), vehicle: methylcellulose (MC)): 2 of 6 and 3 of 6
survivor count (dose: 93.75 mg/kg/injection, schedule: Q#A X014 (ip), vehicle: methylcellulose (MC)): 1 of 6

Clc1ccccc1/C=C/C=C1c2ccccc2-c2ccccc21
survivor count (dose: 1103.0 mg/kg/injection, schedule: Q01DX007 (ip), vehicle: carboxymethylcellulose (CMC)): 0 of 6
survivor count (dose: 1679.0 mg/kg/injection, schedule: Q01DX007 (ip), vehicle: carboxymethylcellulose (CMC)): 0 of 6
survivor count (dose: 2506.0 mg/kg/injection, schedule: Q01DX007 (ip), vehicle: carboxymethylcellulose (CMC)): 0 of 6
survivor count (dose: 3759.0 mg/kg/injection, schedule: Q01DX007 (ip), vehicle: carboxymethylcellulose (CMC)): 0 of 6

— PubChem BioAssay AID342 (DTP/NCI, 2004)
